Some peptides are written in HELM: one residue between dots, names in brackets for other building blocks, links after the first $.
Assay: general procedure: solution-phase peptide synthesis; PyBroP/DIEA; WSCD.HCl/HOObt
Conditions: late stage modification step, HCl salt (deprotected intermediates)

PEPTIDE1{[GluOnBu].[MeVal].L.[bHOMeVal].[D-Hmp].[MeVal].F.[MePhe].P}$PEPTIDE1,PEPTIDE1,1:R1-9:R2$$$V2.0
step yield: 95.2%
